From US20030162228A1
No constants are given. Whether binding was seen depends on the method and setting. For some assays here: Binding seen in cells or lysates may run through a third protein. Some binding calls cover weakened binding; strength is not graded here. Where a sequence is shown, tags or fusion partners need not be part of it.

Columns and labels:
[1] = biological target: T1, recombinant human TAK1-6×His polypeptide (human) (UniProt O43318); assay: competition in co-immunoprecipitation of FLAG-TAB1 with TAK1-6×His; peptide at two concentrations
T1 sequence: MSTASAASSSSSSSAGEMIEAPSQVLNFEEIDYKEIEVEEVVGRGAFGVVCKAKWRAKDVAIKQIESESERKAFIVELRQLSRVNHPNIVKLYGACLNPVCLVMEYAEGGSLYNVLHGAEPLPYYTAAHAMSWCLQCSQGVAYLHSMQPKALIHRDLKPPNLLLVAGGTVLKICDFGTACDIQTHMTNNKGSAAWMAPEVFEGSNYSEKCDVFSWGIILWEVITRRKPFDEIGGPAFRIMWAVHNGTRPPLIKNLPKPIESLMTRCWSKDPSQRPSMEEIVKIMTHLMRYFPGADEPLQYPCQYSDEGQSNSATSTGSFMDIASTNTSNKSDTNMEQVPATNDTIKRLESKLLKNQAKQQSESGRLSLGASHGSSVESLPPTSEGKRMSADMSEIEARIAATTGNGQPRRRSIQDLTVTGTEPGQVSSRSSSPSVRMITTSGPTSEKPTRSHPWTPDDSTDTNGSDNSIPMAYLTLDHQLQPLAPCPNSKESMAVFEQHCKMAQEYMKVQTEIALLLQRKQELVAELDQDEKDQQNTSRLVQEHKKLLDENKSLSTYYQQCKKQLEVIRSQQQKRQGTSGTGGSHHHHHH

[2] = biological target: T1, recombinant human TAK1-6×His polypeptide (human); assay: competition in co-immunoprecipitation with anti-TAK1 antibody; the blocked ligand is FLAG-TAB1; band densities of FLAG-TAB1 corrected for TAK1
[3] = biological target: T2, TAK1 expressed from yeast 2-hybrid expression vector pBTMHu11F (Homo sapiens (Human)) (UniProt O43318); assay: yeast 2-hybrid method
T2 sequence: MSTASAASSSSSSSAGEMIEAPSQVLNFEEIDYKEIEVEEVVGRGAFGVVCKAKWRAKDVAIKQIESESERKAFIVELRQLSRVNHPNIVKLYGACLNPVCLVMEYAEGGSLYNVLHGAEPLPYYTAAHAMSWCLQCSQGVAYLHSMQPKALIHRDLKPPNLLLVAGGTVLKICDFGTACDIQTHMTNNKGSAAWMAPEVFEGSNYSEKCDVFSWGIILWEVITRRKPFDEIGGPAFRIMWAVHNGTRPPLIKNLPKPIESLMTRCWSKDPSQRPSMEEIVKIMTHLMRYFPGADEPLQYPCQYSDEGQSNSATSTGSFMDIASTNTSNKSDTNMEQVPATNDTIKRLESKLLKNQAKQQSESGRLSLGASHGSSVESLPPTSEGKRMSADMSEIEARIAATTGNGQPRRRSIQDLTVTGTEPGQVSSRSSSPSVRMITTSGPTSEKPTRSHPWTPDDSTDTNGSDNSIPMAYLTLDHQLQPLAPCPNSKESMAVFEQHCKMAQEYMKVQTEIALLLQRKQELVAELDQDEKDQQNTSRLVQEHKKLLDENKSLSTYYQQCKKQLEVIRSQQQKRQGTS

| binding [1] | binding [2] | binding [3] | Binder |
| --- | --- | --- | --- |
| binds | binds |  | CVEPYVDFAEFYRGRK [peptide TAB1C-1] |
|  |  | binds | LPPGEDGRVEPYVDFAEFYRLWSVDHGEQSVVTAP (peptide, not shown: large carriers) [TAB1C35, fusion with the GAL4 transcription activated domain (pGAD-TAB1C35)] |
|  |  | binds | DGRVEPYVDFAEFYRLWSVDHGEQSVVTAP (peptide, not shown: large carriers) [TAB1C30, fusion with the GAL4 transcription activated domain (pGAD-TAB1C30)] |
|  |  | binds | PYVDFAEFYRLWSVDHGEQSVVTAP (peptide, not shown: large carriers) [TAB1C25, fusion with the GAL4 transcription activated domain (pGAD-TAB1C25)] |
